A short description of this experiment: IkB Signaling. The settings on record: ABC-DLBCL IkBa-CBG/CBR dual luciferase ratio (green luciferase fused to IkBa over red control in OCI-Ly3 lymphoma cells), 4 h. In short, it runs like this:
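In this assay, an IκBα–CBG68 fusion accumulates when IKK-driven degradation is blocked; native CBR normalizes for cell number. OCI-Ly3 cells were treated 4 h with compound and doxycycline, then green and red light read after Chroma-Glo addition.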

Where [1] appears, read: measured here: control luc red channel.
The mark [2] stands for this setting: measured here: IkB-luc green channel.

SMILES strings stand for the structures. “And” between values parts separate entries of the source, which are not always exact repeats. Equal values may be shown once. The list shows a part of the results. The main result of the screen is listed elsewhere. These columns were measured beside it and carry no call. Most of these compounds were active or inconclusive in the main read-out, so they are no random draw. Words in brackets tell the shape of the fitted curve; partial curves, single points and poor fits give uncertain potencies.

As usually defined, the AC50 is the concentration at which the activity in the assay is half-maximal. `CN(CC1COc2ccccc2O1)c1nc(-c2cccnc2)nc2ccccc12` (centres undefined): under setting [1], the AC50 is 20 µM [falling, partial curve].
Still for that read-out and setting: the figure for `CCC(=NCc1ccc2c(c1)OCO2)c1c(O)n(C2CCCCC2)c(=O)[nH]c1=O` is 15.8 µM [falling, partial curve].
In the case of `CC(C)(C)OOC(=O)c1ccccc1`, under setting [2], the concentration at half-maximal activity (AC50) was 39.8 µM [rising, partial curve, poor fit].
On to `CCN(CC)C(=O)c1ccc(NC(=O)CCn2nc(-c3ccc(C)cc3)c3ccccc3c2=O)cc1`, for which the AC50 under setting [1] was 20 µM [falling, partial curve].
Consider `CCOc1ccc(CN(CCc2ccc3c(c2)OCO3)Cc2cccc(C)c2)cc1`, for which the half-maximal activity concentration (AC50) under setting [1] is 3.16 µM [falling, partial curve, poor fit].
In the case of `CN1[C@@H]2CC[C@H]1CC(O[C@@H](c1ccccc1)c1ccc(Cl)cc1)C2` (some centres undefined), the AC50 under setting [1] is 31.6 µM [falling, partial curve].
Consider `CCN(CC)C(=O)c1ccc(NC(=O)CCn2nc(-c3ccc(Cl)cc3)c3ccccc3c2=O)cc1`, for which the AC50 under setting [1] was 31.6 µM [falling, partial curve].
Same read-out and setting: the result for `Cc1cccc(C2CC(=O)Oc3c2c(=O)oc2ccccc32)c1` (centres undefined) reads 15.8 µM [falling, partial curve]; that for `C[C@@H]1O[C@H](O[C@H]2C[C@@H](O)[C@]3(CO)[C@H]4[C@H](O)C[C@]5(C)[C@@H](C6=CC(=O)OC6)CC[C@@]5(O)[C@H]4CC[C@]3(O)C2)[C@@H](O)[C@H](O)[C@H]1O`, 0.398 µM [falling, full curve]; that for `Cc1nnc(NC(=O)c2cccn(Cc3ccccc3)c2=O)s1`, 2 µM [rising, full curve].
On the same count and under the same terms, the result for `COc1cc2nc(CN3CC=C(c4ccccc4)CC3)[nH]c(=O)c2cc1OC` reads 0.794 µM [falling, full curve].
For the compound `O=C1NC(=O)[C@]2(Cc3ccccc3N3CCN(c4ccccc4)CC32)C(=O)N1c1ccccc1` (some centres undefined), the half-maximal activity concentration (AC50) under setting [1] is 1 µM [falling, partial curve].
Same read-out and setting: the result for `COc1ccc(NC(=O)CN2C(=O)CN=C(c3ccccc3)c3ccccc32)c(OC)c1` reads 15.8 µM [falling, single point].
As to `C[C@@H]1CC[C@@]2(OC1)O[C@H]1[C@@H](O)[C@H]3[C@@H]4CC[C@H]5C[C@@H](O[C@@H]6O[C@H](CO)[C@H](O[C@@H]7O[C@H](CO)[C@@H](O)[C@H](O[C@@H]8OC[C@@H](O)[C@H](O)[C@H]8O)[C@H]7O[C@@H]7O[C@H](CO)[C@@H](O)[C@H](O[C@@H]8O[C@H](CO)[C@@H](O)[C@H](O)[C@H]8O)[C@H]7O)[C@H](O)[C@H]6O)[C@H](O)C[C@]5(C)[C@H]4CC[C@]3(C)[C@H]1[C@@H]2C`, the concentration at half-maximal activity (AC50) under setting [2] was 0.1 µM [rising, full curve, poor fit] and the AC50 under setting [1] was 0.0794 µM [rising, full curve, poor fit].
On to `COc1ccc(OC)c(CCNCc2c(C(=O)O)c(C)n(Cc3ccc(F)cc3Cl)c2C)c1`, for which the AC50 under setting [1] is 31.6 µM [falling, single point].
Take `Cc1cc(OCC(=O)N2CCN(CCc3ccncc3)CC2)cc(C)c1Cl`: the AC50 under setting [1] was 39.8 µM [falling, partial curve].
On the same count and under the same terms, the figure for `COc1ccc(NC(=O)CCc2nc(C3=CCN(Cc4cccc(C)c4)CC3)no2)c(OC)c1` is 2.51 µM [falling, partial curve].
As for `CCNC(=O)[C@@H]1O[C@@H](n2cnc3c(N)ncnc32)[C@@H](O)[C@H]1O`, the AC50 under setting [2] is 0.01 µM [rising, full curve, poor fit] and the AC50 under setting [1] is 0.0158 µM [rising, full curve].
`CCCCn1c(N)c(C(=O)NCCN2CCOCC2)c2nc3ccccc3nc21`: under setting [1], the half-maximal activity concentration (AC50) is 25.1 µM [falling, partial curve].
Turning to `Cc1cccc(-n2c(/C=C\c3cccc(Br)c3)nc3ccccc3c2=O)c1`, the AC50 under setting [1] was 3.16 µM [rising, partial curve].
Turning to `CC1=CC(=O)NP(=O)(Oc2ccc3ccccc3c2)N1` (centres undefined), under setting [2], the concentration at half-maximal activity (AC50) is 31.6 µM [rising, partial curve].
Take `O=C(CCl)c1ccccc1`: the concentration at half-maximal activity (AC50) under setting [2] was 20 µM [rising, partial curve].
Turning to `COc1ccc(C2CC(=O)Oc3c2c(=O)oc2ccccc32)c(OC)c1OC` (centres undefined), the AC50 under setting [1] was 25.1 µM [falling, single point].
The same measure, in the same setting: the figure for `O=C1C2CC=CCC2C(=O)N1SC(Cl)(Cl)Cl` (centres undefined) is 3.98 µM [falling, partial curve] and 3.16 µM [falling, full curve]; for `C[C@H]1CCCC(=O)CCCCCc2cc(O)cc(O)c2C(=O)O1` it is 25.1 µM [falling, single point].
Same read-out and setting: the result for `FC(F)(F)c1ccc2c(c1)nnn2C1CCN(Cc2nnnn2Cc2ccccc2)CC1` reads 25.1 µM [falling, partial curve].
Still for that read-out and setting: the figure for `CCCCCCCCCOc1ccc2[nH]cc(CCN)c2c1` is 39.8 µM [falling, partial curve]; for `Clc1ccc(COC(Cn2ccnc2)c2ccc(Cl)cc2Cl)cc1` (centres undefined) it is 15.8 µM [falling, partial curve]; for `CN(C)C=C1C(=O)N(C2CCCCC2)C(=O)N(C2CCCCC2)C1=O` it is 15.8 µM [falling, partial curve].
For `Cc1nn(Cc2ccccc2)c(C)c1C(=O)OCC(=O)Nc1ccccc1SCC#N`, the AC50 under setting [1] is 12.6 µM [falling, partial curve].
Same read-out and setting: the figure for `COc1ccc(C2=NCC(=O)N(CC(=O)NCc3ccco3)c3sc4c(c32)CCCC4)cc1` is 15.8 µM [falling, partial curve]; for `CCC(C)NC(=O)c1c(N)n(CCCOC)c2nc3ccccc3nc12` (centres undefined) it is 15.8 µM [falling, partial curve]; for `CCOC(=O)c1c(N)n(Cc2ccco2)c2nc3ccccc3nc12` it is 20 µM [falling, partial curve, poor fit].
For `Cc1nc(-c2ccc(-c3ccc(C(=O)N4CCc5cc6c(cc54)C4(CCN(C)CC4)CO6)cc3)c(C)c2)no1`, the half-maximal activity concentration (AC50) under setting [2] was 25.1 µM [falling, partial curve]; the AC50 under setting [1] is 25.1 µM [falling, partial curve] and 31.6 µM [falling, partial curve].
Turning to `COc1ccc(Cl)cc1NC1=NCC(C)S1` (centres undefined), under setting [1], the AC50 was 39.8 µM [falling, single point].
The same measure, in the same setting: the figure for `NNc1c(C(N)=O)c2c(N)ncnc2n1[C@@H]1O[C@H](CO)[C@@H](O)[C@@H]1O` is 3.16 µM [falling, partial curve]; for `COc1ccc(NC(=O)c2cccn(Cc3ccc(Cl)cc3)c2=O)c(OC)c1` it is 25.1 µM [rising, partial curve, poor fit].
In the case of `CCCn1c(=O)c2[nH]c(C3CCCC3)nc2n(CCCOC(=O)c2ccc(S(=O)(=O)F)cc2)c1=O`, the AC50 is, setting by setting: under setting [2], 6.31 µM [falling, full curve]; under setting [1], 7.94 µM [falling, full curve].
For the compound `Cc1nc2cc(C(F)(F)F)ccc2n1C1CCN(Cc2nnnn2Cc2ccc3c(c2)OCO3)CC1`, the AC50 by setting is: under setting [2], 20 µM [falling, single point]; under setting [1], 10 µM [falling, partial curve].
As for `COc1cc2c(cc1O)[C@H]1Cc3ccc(OC)c(O)c3CN1CC2`, the concentration at half-maximal activity (AC50) runs as follows: under setting [2], 15.8 µM [rising, partial curve]; under setting [1], 15.8 µM [rising, partial curve].
As for `Cc1ccccc1-n1c(/C=C/c2ccccc2F)nc2ccccc2c1=O`, under setting [1], the AC50 is 25.1 µM [falling, partial curve].
The same measure, in the same setting: the result for `COCCOC(=O)C1=C(N)Oc2c(c(=O)oc3ccccc23)C1c1ccncc1` (centres undefined) reads 0.158 µM [falling, full curve]; that for `O=C(COc1ccccc1[N+](=O)[O-])N1CCN(CCc2ccccn2)CC1`, 20 µM [falling, partial curve].
On to `ClC1=C(Cl)C2(Cl)C3C4CC(C5OC45)C3C1(Cl)C2(Cl)Cl` (centres undefined), for which the AC50 by setting is: under setting [2], 2.51 µM [rising, full curve]; under setting [1], 3.98 µM [rising, full curve].
Consider `O=C(Nc1ccccc1C(F)(F)F)c1cccn(Cc2ccccc2)c1=O`, for which, under setting [1], the AC50 is 39.8 µM [falling, single point].
Take `Cc1ccc(-n2c(/C=C/c3cccc4ccccc34)nc3ccccc3c2=O)cc1`: under setting [1], the AC50 was 12.6 µM [falling, partial curve].
For `O=C(Nc1cccnc1)c1c(O)c2c(n(Cc3ccccc3)c1=O)CCCC2`, under setting [1], the AC50 is 15.8 µM [falling, partial curve].
On the same count and under the same terms, the figure for `CN(C(=O)Cc1ccc(Cl)c(Cl)c1)[C@H](CN1CCCC1)c1cccc(N=C=S)c1` is 39.8 µM [falling, single point]; for `Nc1ccc(Cl)cc1N` it is 1.58 µM [falling, full curve].
Regarding `N#CSCSC#N`, the AC50 reads like this: under setting [2], 1.26 µM [rising, full curve]; under setting [1], 1.58 µM [rising, full curve].
Take `O=C(O)[C@@H]1[C@H](C(=O)O)[C@]2(Cl)C(Cl)=C(Cl)[C@@]1(Cl)C2(Cl)Cl`: the AC50 under setting [2] was 2.51 µM [rising, partial curve].
As to `C[C@@]12CC[C@H](O)C[C@@H]1CC[C@H]1[C@H]2CC[C@@]2(C)[C@@H](C3=CC(=O)OC3)CC[C@]12O`, the AC50 under setting [1] was 0.631 µM [falling, full curve].
For `CCOC(=O)c1ccc(NC(=O)CSc2nc3c(cc2C#N)N2CCC3CC2)cc1`, the AC50 under setting [1] is 7.94 µM [falling, single point].
Regarding `COc1cc2cc(c1Cl)N(C)C(=O)C[C@H](OC(=O)C(C)C)[C@]1(C)O[C@@H]1[C@@H](C)[C@H]1C[C@](O)(NC(=O)O1)[C@@H](OC)/C=C\C=C(\C)C2`, the AC50 was 0.0158 µM [rising, full curve] under setting [2] and 0.00251 µM [rising, full curve] under setting [1].
`O=C1NC(=O)N(C2CCCCC2)C(=O)C1C1c2ccccc2C(=O)N1Cc1ccccc1` (centres undefined): the AC50 under setting [1] is 7.94 µM [falling, partial curve].
